Results are given in words; binding and its absence hold for the method and conditions named. Binding seen in cells or lysates may run through a third protein. Here binding means that the protein was enriched with, or labelled near, the bait; the list need not be complete.
B1: espin (protein, UniProt B1AK53-1 1-854)
chain: MALEQALQAARQGELDVLRSLHAAGLLGPSLRDPLDALPVHHAARAGKLHCLRFLVEEAALPAAARARNGATPAHDASATGHLACLQWLLSQGGCRVQDKDNSGATVLHLAARFGHPEVVNWLLHHGGGDPTAATDMGALPIHYAAAKGDFPSLRLLVEHYPEGVNAQTKNGATPLYLACQEGHLEVTQYLVQECGADPHARAHDGMTPLHAAAQMGHSPVIVWLVSCTDVSLSEQDKDGATAMHFAASRGHTKVLSWLLLHGGEISADLWGGTPLHDAAENGELECCQILVVNGAELDVRDRDGYTAADLSDFNGHSHCTRYLRTVENLSVEHRVLSRDPSAELEAKQPDSGMSSPNTTVSVQPLNFDLSSPTSTLSNYDSCSSSHSSIKGQHPPCGLSSARAADIQSYMDMLNPELGLPRGTIGKPTPPPPPPSFPPPPPPPGTQLPPPPPGYPAPKPPVGPQAADIYMQTKNKLRHVETEALKKELSSCDGHDGLRRQDSSRKPRAFSKQPSTGDYYRQLGRCPGETLAARPGMAHSEEVRARQPARAGCPRLGPAARGSLEGPSAPPQAALLPGNHVPNGCAADPKASRELPPPPPPPPPPLPEAASSPPPAPPLPLESAGPGCGQRRSSSSTGSTKSFNMMSPTGDNSELLAEIKAGKSLKPTPQSKGLTTVFSGIGQPAFQPDSPLPSVSPALSPVRSPTPPAAGFQPLLNGSLVPVPPTTPAPGVQLDVEALIPTHDEQGRPIPEWKRQVMVRKMQLKMQEEEEQRRKEEEEEARLASMPAWRRDLLRKKLEEEREQKRKEEERQKQEELRREKEQSEKLRTLGYDESKLAPWQRQVILKKGDIAKY
B2: Plastin-3 (protein, UniProt P13797 1-630)
chain: MDEMATTQISKDELDELKEAFAKVDLNSNGFICDYELHELFKEANMPLPGYKVREIIQKLMLDGDRNKDGKISFDEFVYIFQEVKSSDIAKTFRKAINRKEGICALGGTSELSSEGTQHSYSEEEKYAFVNWINKALENDPDCRHVIPMNPNTDDLFKAVGDGIVLCKMINLSVPDTIDERAINKKKLTPFIIQENLNLALNSASAIGCHVVNIGAEDLRAGKPHLVLGLLWQIIKIGLFADIELSRNEALAALLRDGETLEELMKLSPEELLLRWANFHLENSGWQKINNFSADIKDSKAYFHLLNQIAPKGQKEGEPRIDINMSGFNETDDLKRAESMLQQADKLGCRQFVTPADVVSGNPKLNLAFVANLFNKYPALTKPENQDIDWTLLEGETREERTFRNWMNSLGVNPHVNHLYADLQDALVILQLYERIKVPVDWSKVNKPPYPKLGANMKKLENCNYAVELGKHPAKFSLVGIGGQDLNDGNQTLTLALVWQLMRRYTLNVLEDLGDGQKANDDIIVNWVNRTLSEAGKSTSIQSFKDKTISSSLAVVDLIDAIQPGCINYDLVKSGNLTEDDKHNNAKYAVSMARRIGARVYALPEDLVEVKPKMVMTVFACLMGRGMKRV
B3: Coiled-coil domain-containing protein 146 (protein, UniProt Q8IYE0-1 1-955)
chain: MEDSSTDTEKEEEEEKDEKDQEPIYAIVPTINIQDERFVDLSETPAFIFLHELHAMGKLPGTRMAALKAKYTLLHDAVMSTQESEVQLLQNAKRFTEQIQQQQFHLQQADNFPEAFSTEVSKMREQLLKYQNEYNAVKEREFHNQYRLNSLKEEKIIIVKEFEKITKPGEMEKKMKILRESTEELRKEIMQKKLEIKNLREDLASKQKQLLKEQKELEELLGHQVVLKDEVAHHQTIPVQIGKEIEKITRKKVEMEKKKIVLEQEVKTLNDSLKKVENKVSAIVDEKENVIKEVEGKRALLEIKEREHNQLVKLLELARENEATSLTERGILDLNLRNSLIDKQNYHDELSRKQREKERDFRNLRKMELLLKVSWDALRQTQALHQRLLLEMEAIPKDDSTLSERRRELHKEVEVAKRNLAQQKIISEMESKLVEQQLAEENKLLKEQENMKELVVNLLRMTQIKIDEKEQKSKDFLKAQQKYTNIVKEMKAKDLEIRIHKKKKCEIYRRLREFAKLYDTIRNERNKFVNLLHKAHQKVNEIKERHKMSLNELEILRNSAVSQERKLQNSMLKHANNVTIRESMQNDVRKIVSKLQEMKEKKEAQLNNIDRLANTITMIEEEMVQLRKRYEKAVQHRNESGVQLIEREEEICIFYEKINIQEKMKLNGEIEIHLLEEKIQFLKMKIAEKQRQICVTQKLLPAKRSLDADLAVLQIQFSQCTDRIKDLEKQFVKPDGENRARFLPGKDLTEKEMIQKLDKLELQLAKKEEKLLEKDFIYEQVSRLTDRLCSKTQGCKQDTLLLAKKMNGYQRRIKNATEKMMALVAELSMKQALTIELQKEVREKEDFIFTCNSRIEKGLPLNKEIEKEWLKVLRDEEMHALAIAEKSQEFLEADNRQLPNGVYTTAEQRPNAYIPEADATLPLPKPYGALAPFKPSEPGANMRHIRKPVIKPVEI
B4: Transmembrane protein 43 (protein, UniProt Q9BTV4 1-400)
chain: MAANYSSTSTRREHVKVKTSSQPGFLERLSETSGGMFVGLMAFLLSFYLIFTNEGRALKTATSLAEGLSLVVSPDSIHSVAPENEGRLVHIIGALRTSKLLSDPNYGVHLPAVKLRRHVEMYQWVETEESREYTEDGQVKKETRYSYNTEWRSEIINSKNFDREIGHKNPSAMAVESFMATAPFVQIGRFFLSSGLIDKVDNFKSLSLSKLEDPHVDIIRRGDFFYHSENPKYPEVGDLRVSFSYAGLSGDDPDLGPAHVVTVIARQRGDQLVPFSTKSGDTLLLLHHGDFSAEEVFHRELRSNSMKTWGLRAAGWMAMFMGLNLMTRILYTLVDWFPVFRDLVNIGLKAFAFCVATSLTLLTVAAGWLFYRPLWALLIAGLALVPILVARTRVPAKKLE
B5: cingulin (protein, UniProt Q9P2M7 1-1203)
chain: MEQAPNMAEPRGPVDHGVQIRFITEPVSGAEMGTLRRGGRRPAKDARASTYGVAVRVQGIAGQPFVVLNSGEKGGDSFGVQIKGANDQGASGALSSDLELPENPYSQVKGFPAPSQSSTSDEEPGAYWNGKLLRSHSQASLAGPGPVDPSNRSNSMLELAPKVASPGSTIDTAPLSSVDSLINKFDSQLGGQARGRTGRRTRMLPPEQRKRSKSLDSRLPRDTFEERERQSTNHWTSSTKYDNHVGTSKQPAQSQNLSPLSGFSRSRQTQDWVLQSFEEPRRSAQDPTMLQFKSTPDLLRDQQEAAPPGSVDHMKATIYGILREGSSESETSVRRKVSLVLEKMQPLVMVSSGSTKAVAGQGELTRKVEELQRKLDEEVKKRQKLEPSQVGLERQLEEKTEECSRLQELLERRKGEAQQSNKELQNMKRLLDQGEDLRHGLETQVMELQNKLKHVQGPEPAKEVLLKDLLETRELLEEVLEGKQRVEEQLRLRERELTALKGALKEEVASRDQEVEHVRQQYQRDTEQLRRSMQDATQDHAVLEAERQKMSALVRGLQRELEETSEETGHWQSMFQKNKEDLRATKQELLQLRMEKEEMEEELGEKIEVLQRELEQARASAGDTRQVEVLKKELLRTQEELKELQAERQSQEVAGRHRDRELEKQLAVLRVEADRGRELEEQNLQLQKTLQQLRQDCEEASKAKMVAEAEATVLGQRRAAVETTLRETQEENDEFRRRILGLEQQLKETRGLVDGGEAVEARLRDKLQRLEAEKQQLEEALNASQEEEGSLAAAKRALEARLEEAQRGLARLGQEQQTLNRALEEEGKQREVLRRGKAELEEQKRLLDRTVDRLNKELEKIGEDSKQALQQLQAQLEDYKEKARREVADAQRQAKDWASEAEKTSGGLSRLQDEIQRLRQALQASQAERDTARLDKELLAQRLQGLEQEAENKKRSQDDRARQLKGLEEKVSRLETELDEEKNTVELLTDRVNRGRDQVDQLRTELMQERSARQDLECDKISLERQNKDLKTRLASSEGFQKPSASLSQLESQNQLLQERLQAEEREKTVLQSTNRKLERKVKELSIQIEDERQHVNDQKDQLSLRVKALKRQVDEAEEEIERLDGLRKKAQREVEEQHEVNEQLQARIKSLEKDSWRKASRSAAESALKNEGLSSDEEFDSVYDPSSIASLLTESNLQTSSC

Sequences of proteins named here, by UniProt entry; tags and fusion partners are left off.
UniProt Q05397: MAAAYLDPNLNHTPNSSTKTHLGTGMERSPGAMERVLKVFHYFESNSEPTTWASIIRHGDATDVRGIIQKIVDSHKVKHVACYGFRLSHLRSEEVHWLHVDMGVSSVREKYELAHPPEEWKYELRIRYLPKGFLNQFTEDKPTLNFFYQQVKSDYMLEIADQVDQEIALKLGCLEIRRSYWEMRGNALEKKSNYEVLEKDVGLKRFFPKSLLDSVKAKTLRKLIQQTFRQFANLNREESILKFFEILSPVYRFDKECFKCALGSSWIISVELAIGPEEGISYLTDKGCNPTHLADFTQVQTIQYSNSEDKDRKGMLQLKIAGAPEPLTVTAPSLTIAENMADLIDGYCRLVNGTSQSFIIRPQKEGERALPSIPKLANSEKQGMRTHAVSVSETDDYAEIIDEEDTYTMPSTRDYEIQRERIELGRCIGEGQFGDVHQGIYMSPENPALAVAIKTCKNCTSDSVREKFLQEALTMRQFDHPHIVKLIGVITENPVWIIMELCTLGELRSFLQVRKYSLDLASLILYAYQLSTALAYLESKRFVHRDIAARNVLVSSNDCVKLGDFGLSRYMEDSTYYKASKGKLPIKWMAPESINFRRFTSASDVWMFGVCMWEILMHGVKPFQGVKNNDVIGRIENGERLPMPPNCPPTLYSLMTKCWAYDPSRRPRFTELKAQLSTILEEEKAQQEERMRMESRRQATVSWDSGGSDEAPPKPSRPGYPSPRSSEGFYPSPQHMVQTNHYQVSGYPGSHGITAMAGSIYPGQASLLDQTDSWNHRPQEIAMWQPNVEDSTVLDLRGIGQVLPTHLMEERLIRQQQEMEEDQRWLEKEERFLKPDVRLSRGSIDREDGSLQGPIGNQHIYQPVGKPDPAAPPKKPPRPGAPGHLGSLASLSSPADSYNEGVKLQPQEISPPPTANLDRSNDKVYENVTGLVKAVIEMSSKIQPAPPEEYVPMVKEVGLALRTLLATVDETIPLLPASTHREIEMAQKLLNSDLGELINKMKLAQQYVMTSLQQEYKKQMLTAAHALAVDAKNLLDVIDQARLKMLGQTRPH

Molecular target: Focal adhesion kinase 1 (human (endogenous in HCT-116)) (UniProt Q05397)
Assay: affinity purification with mass spectrometry; anti-FAK polyclonal antibody and Protein A/G agarose on 1.5 mg HCT-116 total cell lysate, cells untreated (regular IP) or stimulated with 10 ng/ml EGF for 30 min; rabbit IgG as control; 1D SDS-PAGE, in-gel trypsin digestion, nano-LC-MS/MS; the proteins of Table 2 were found only with EGF …

binding, binds:
B1, B2, B3, B4, B5

Reference: article PMC6733923
